1 compound from ChEMBL document CHEMBL3132861 (Medchemcomm, 2013) can be followed below.

By IC50 is commonly meant the point on the concentration scale where inhibition reaches its midpoint.

A short description of this assay: Antiproliferative activity against human MDA-MB-435 cells by SRB assay. On the technique in general: Sulforhodamine B stains cellular protein and so reports cell mass.

On to `COc1cc2c(c(OC)c1OC)-c1ccc(OC)c(=O)cc1[C@@H](NC(C)=O)CC2` [COLCHICINE], for which inhibition was half-maximal at 16 nM (IC50).
